PubChem BioAssay AID1224826 | NIAID, 2016

- Screen: 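Genes that change LPS-induced Tnf promoter activity in mouse macrophages when knocked down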 (primary screen)
- System: RAW264.7 G9 macrophages from mouse bearing reporters for p65 (GFP) and the Tnf promoter (mCherry)
- Reagent: siRNA pool against mouse genes, 100 nM
- Duration: 16 h of LPS stimulation, after 2 days of siRNA transfection
- Challenge: bacterial lipopolysaccharide (Salmonella minnesota R595), 10 ng/ml
- Measured: 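Imaged Tnf reporter mCherry in nuclei, minus background, normalised per plate to the median and expressed as robust z-scores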
- Scale: Tnf reporter robust z-score: higher = stronger Tnf promoter reporter signal after LPS
- Call rule: 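Called active when robust z-score is at most -1.3, matching the median of the Tlr4 knock-down control, or over 3; control wells and wells with under 50 cells never active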
- Meaning of the calls: active = Tnf reporter clearly lowered or raised; inactive = no clear change in Tnf reporter
Here is one part, drawn at random, of about 17,000 deposited reagents. About 1,110 of them (6.6%) were called active. 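Active means lowered or raised reporter signal; replicate intensities are raw and not normalised per plate.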 A number with no mark means an inactive call. Not all columns of the deposit are shown.

Silencing of Gpatch11 resulted in: fewer than 50 cells in well fewer than 50 cells per well; well left out of calls.
Knock-down of Unc119b gave: Tnf reporter robust z-score 0.48; fewer than 50 cells in well enough cells in well.
Against Ldb3, the values are Tnf reporter robust z-score 0.02; fewer than 50 cells in well enough cells in well.
Against Or4d1, the values are Tnf reporter robust z-score 0.41; fewer than 50 cells in well enough cells in well.
For Or4k36, the values are Tnf reporter robust z-score 1.88; fewer than 50 cells in well enough cells in well.
Knock-down of Cbx5 resulted in: Tnf reporter robust z-score 0.58; fewer than 50 cells in well enough cells in well.
Depletion of Ermap came out at: Tnf reporter robust z-score 1.43; fewer than 50 cells in well enough cells in well.
Ppm1d scored Tnf reporter robust z-score 1.34; fewer than 50 cells in well enough cells in well.
For Mlxipl the deposit lists Tnf reporter robust z-score -0.3; fewer than 50 cells in well enough cells in well.
After knock-down of Ccl17, the screen gave Tnf reporter robust z-score -0.1; fewer than 50 cells in well enough cells in well.
Against Eloc the deposit lists Tnf reporter robust z-score -1.33 (active); fewer than 50 cells in well enough cells in well.
With knock-down of Tlcd1, the record shows Tnf reporter robust z-score -0.08; fewer than 50 cells in well enough cells in well.
1500015L24Rik scored fewer than 50 cells in well fewer than 50 cells per well; well left out of calls.
Ipp showed Tnf reporter robust z-score 2.87; fewer than 50 cells in well enough cells in well.
With knock-down of Cbln2, the record shows Tnf reporter robust z-score -0.62; fewer than 50 cells in well enough cells in well.
Tspan31 showed Tnf reporter robust z-score -0.1; fewer than 50 cells in well enough cells in well.
For Elovl7, the values are Tnf reporter robust z-score -0.39; fewer than 50 cells in well enough cells in well.
For Acp6, the entry reads Tnf reporter robust z-score 1.16; fewer than 50 cells in well enough cells in well.
Against Glo1, the values are Tnf reporter robust z-score 0.41; fewer than 50 cells in well enough cells in well.
Mto1 gave Tnf reporter robust z-score 0.38; fewer than 50 cells in well enough cells in well.
Slc26a3 scored Tnf reporter robust z-score 0.21; fewer than 50 cells in well enough cells in well.
